# Results deposited as PubChem BioAssay AID743121 (NCATS, 2013)
# Test: 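Partners whose loss is lethal together with topoisomerase I blockade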 (primary screen)
# Cells: MDA-MB-231 cells, a human breast cancer line
# Knock-down reagent: single siRNA against human genes, 20 nM siRNA (0.8 pmol per well)
# Time to read-out: 120 h (drug added 48 h after transfection, read 72 h later)
# Challenge: camptothecin 20 nM (about EC30) for 72 h; vehicle 0.1% DMSO in parallel plates
# Detection: 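Cell viability by ATP luminescence (CellTiter-Glo) as % of non-targeting siRNA wells, and the log2 ratio of viability without drug over viability with camptothecin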
# Scale: log2 vehicle/camptothecin viability: higher = stronger sensitisation to camptothecin; viability with camptothecin and viability without drug: higher = more viable cells
# Call rule: 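Each gene scored by redundant siRNA activity (RSA) over its individual siRNA ratios; a gene is called active at p < 0.001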
# The deposit covers about 26,000 reagents; this is a random part of them. 167 of all reagents (0.63%) count as active. 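Calls are per gene from RSA p-values that are not deposited; an individual active-marked siRNA can sensitise only weakly.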 Reagents against one gene are numbered here.
gene knocked down,siRNA no.,log2 vehicle/camptothecin viability,viability with camptothecin (% of control),viability without drug (% of control),Call
RARRES2 (GeneID 5919),1,-0.109,81.4,75.5,inactive
RARRES2 (GeneID 5919),2,-0.151,107,96.4,inactive
RARRES2 (GeneID 5919),3,-0.341,71.4,56.4,inactive
RARRES2 (GeneID 5919),4,-0.0768,76.8,72.8,inactive
MS4A12 (GeneID 54860),1,-0.338,137,109,inactive
MS4A12 (GeneID 54860),2,-0.317,77.8,62.5,inactive
MS4A12 (GeneID 54860),3,0.4,76.3,101,inactive
MS4A12 (GeneID 54860),4,-0.517,103,72.1,inactive
CETN2 (GeneID 1069),1,-0.0298,84.4,82.7,inactive
CETN2 (GeneID 1069),2,-0.107,108,101,inactive
CETN2 (GeneID 1069),3,-0.548,77,52.7,inactive
CETN2 (GeneID 1069),4,0.0651,48.8,51,inactive
ELOB (GeneID 6923),1,-0.158,118,106,inactive
ELOB (GeneID 6923),2,0.783,17.5,30.1,inactive
ELOB (GeneID 6923),3,-0.445,27.2,20,inactive
ELOB (GeneID 6923),4,-0.0147,53,52.4,inactive
GMIP (GeneID 51291),1,-0.577,50,33.5,inactive
GMIP (GeneID 51291),2,0.0122,97.6,98.4,inactive
GMIP (GeneID 51291),3,-0.241,93.6,79.2,inactive
C11orf24 (GeneID 53838),1,0.928,33.6,63.9,inactive
C11orf24 (GeneID 53838),2,-0.082,94.4,89.2,inactive
C11orf24 (GeneID 53838),3,-0.564,108,73.2,inactive
C11orf24 (GeneID 53838),4,0.214,80.9,93.8,inactive
DNASE1 (GeneID 1773),1,0.0516,105,109,inactive
DNASE1 (GeneID 1773),2,-0.121,47.3,43.5,inactive
DNASE1 (GeneID 1773),3,-0.173,93.8,83.2,inactive
DNASE1 (GeneID 1773),4,1.09,14.7,31.3,inactive
CNGA1 (GeneID 1259),1,-0.0391,88.8,86.5,inactive
CNGA1 (GeneID 1259),2,0.0769,94.3,99.5,inactive
CNGA1 (GeneID 1259),3,-0.174,83,73.5,inactive
CNGA1 (GeneID 1259),4,-0.252,84.5,71,inactive
DUSP18 (GeneID 150290),1,-0.351,50.8,39.9,inactive
DUSP18 (GeneID 150290),2,-0.0637,93.1,89.1,inactive
DUSP18 (GeneID 150290),3,0.277,77.5,93.9,inactive
DUSP18 (GeneID 150290),4,0.788,47.4,81.8,inactive

An excerpt from the list above:
gene knocked down,siRNA no.,log2 vehicle/camptothecin viability,viability with camptothecin (% of control),viability without drug (% of control),Call
DUSP18 (GeneID 150290),1,-0.351,50.8,39.9,inactive
DUSP18 (GeneID 150290),2,-0.0637,93.1,89.1,inactive
DUSP18 (GeneID 150290),3,0.277,77.5,93.9,inactive

Additional entries follow:
gene knocked down,siRNA no.,log2 vehicle/camptothecin viability,viability with camptothecin (% of control),viability without drug (% of control),Call
STC1 (GeneID 6781),1,-0.471,57.9,41.8,inactive
STC1 (GeneID 6781),2,0.718,47.1,77.5,inactive
STC1 (GeneID 6781),3,-0.141,132,119,inactive
STC1 (GeneID 6781),4,-0.14,101,91.4,inactive
FKBP11 (GeneID 51303),1,0.724,54.9,90.7,inactive
FKBP11 (GeneID 51303),2,-0.0907,97.4,91.4,inactive
FKBP11 (GeneID 51303),3,-0.326,117,93.2,inactive
FKBP11 (GeneID 51303),4,0.0353,96.4,98.8,inactive
MNAT1 (GeneID 4331),1,-0.376,77.7,59.9,inactive
MNAT1 (GeneID 4331),2,0.0143,83.3,84.2,inactive
MNAT1 (GeneID 4331),3,-0.31,96.4,77.8,inactive
MNAT1 (GeneID 4331),4,0.0272,109,111,inactive
CEL (GeneID 1056),1,-0.0625,45.4,43.5,inactive
CEL (GeneID 1056),2,-0.218,77.8,66.9,inactive
CEL (GeneID 1056),3,-0.164,95.2,85,inactive
CEL (GeneID 1056),4,-0.243,105,88.8,inactive
FLCN (GeneID 201163),1,-0.416,90.4,67.7,inactive
FLCN (GeneID 201163),2,0.00275,50,50,inactive
FLCN (GeneID 201163),3,-0.273,78.5,65,inactive
FLCN (GeneID 201163),4,-0.382,47.4,36.4,inactive
MS4A6E (GeneID 245802),1,-0.23,66.4,56.6,inactive
MS4A6E (GeneID 245802),2,-0.0422,85.5,83,inactive
MS4A6E (GeneID 245802),3,0.0361,116,118,inactive
MS4A6E (GeneID 245802),4,-0.579,93.1,62.3,inactive
AGXT (GeneID 189),1,0.00101,80.6,80.7,inactive
AGXT (GeneID 189),2,0.162,58.7,65.6,inactive
AGXT (GeneID 189),3,1.63,25.1,77.8,inactive
AGXT (GeneID 189),4,0.107,78.3,84.4,inactive
CMKLR1 (GeneID 1240),1,-0.0559,95.9,92.2,inactive
CMKLR1 (GeneID 1240),2,-0.181,61.8,54.5,inactive
CMKLR1 (GeneID 1240),3,-0.03,77.7,76.1,inactive
CMKLR1 (GeneID 1240),4,-0.184,81.9,72.1,inactive
KCNE5 (GeneID 23630),1,0.0726,62.4,65.6,inactive
KCNE5 (GeneID 23630),2,-0.348,109,85.5,inactive
KCNE5 (GeneID 23630),3,-0.0936,101,94.5,inactive
KCNE5 (GeneID 23630),4,0.186,89.5,102,inactive
